Some of the results follow. Single values are uncertain, as repeats are few or missing.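 Cells were imaged in 1,536-well plates, and nuclei stained with an antibody against cleaved PARP were counted against all DNA-stained nuclei to give the apoptosis fraction. Screening doses were chosen to leave most cells alive, and resting and induced cleaved-PARP levels differ strongly between cell lines.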

The values that follow come from the supplement of paper PMC4604168 (melanoma cell lines).

This experiment has as its system WM451Lu. Nature of the experiment: cleaved PARP positive nuclei fraction relative to DMSO control; melanoma cells; higher = more apoptosis. The note with it: library dose: low library concentration; 72 h.
For the molecule `Cc1ccc(Nc2nccc(N(C)c3ccc4c(C)n(C)nc4c3)n2)cc1S(N)(=O)=O` [Pazopanib] + CN1CCN(c2ccc3nc(-c4c(N)c5c(F)cccc5[nH]c4=O)[nH]c3c2)CC1 [Dovitinib] (first compound 0.4 µM, partner dose 0.1 µM), the “cleaved PARP positive nuclei fraction” value is 67.8%.

`Cc1cn(-c2cc(NC(=O)c3ccc(C)c(Nc4nccc(-c5cccnc5)n4)c3)cc(C(F)(F)F)c2)cn1` [nilotinib] + Cn1c(=O)n(-c2ccc(C(C)(C)C#N)cc2)c2c3cc(-c4cnc5ccccc5c4)ccc3ncc21 [NVP-BEZ235] (first compound 0.2 µM, partner dose 0.004 µM): the “cleaved PARP positive nuclei fraction” value is 163%.

As to `O=c1[nH]nc(Sc2ncc([N+](=O)[O-])s2)n1-c1ccc2c(c1)OCCO2` + C=CCNC1=C2C[C@@H](C)C[C@H](OC)[C@H](O)[C@@H](C)/C=C(\C)[C@H](OC(N)=O)[C@@H](OC)/C=C\C=C(/C)C(=O)NC(=CC1=O)C2=O [Tanespimycin] (first compound 0.2 µM, partner dose 0.002 µM), the “cleaved PARP positive nuclei fraction” value was determined as 48.9%.

On to `CCCCCCCCCCCCCCCCCCOP(=O)([O-])OC1CC[N+](C)(C)CC1` [Perifosine] + C#Cc1cccc(Nc2ncnc3cc(OCCOC)c(OCCOC)cc23)c1 [erlotinib] (first compound 0.4 µM, partner dose 0.8 µM), for which the “cleaved PARP positive nuclei fraction” value worked out at 91.5%.

As to `COc1cc([C@@H]2c3cc4c(cc3[C@@H](O[C@@H]3O[C@@H]5CO[C@@H](C)O[C@H]5[C@H](O)[C@H]3O)[C@H]3COC(=O)[C@H]23)OCO4)cc(OC)c1O` [etoposide] + C[C@]1(O)C[C@@H](c2nc(-c3ccc4ccc(-c5ccccc5)nc4c3)c3c(N)nccn32)C1 [OSI906] (first compound 0.02 µM, partner dose 0.4 µM), the “cleaved PARP positive nuclei fraction” value worked out at 119%.

On to `CCCCCCCCCCCCCCCCCCOP(=O)([O-])OC1CC[N+](C)(C)CC1` [Perifosine] + C[C@@H](N)c1ccc(C(=O)Nc2ccnc3[nH]ccc23)cc1 [RKI983] (first compound 0.4 µM, partner dose 0.4 µM), for which the “cleaved PARP positive nuclei fraction” value was 61.6%.

Take `CCCCCCCCCCCCCCCCCCOP(=O)([O-])OC1CC[N+](C)(C)CC1` [Perifosine] + CCCS(=O)(=O)Nc1ccc(F)c(C(=O)c2c[nH]c3ncc(Cl)cc23)c1F [PLX4720] (first compound 0.4 µM, partner dose 0.08 µM): the “cleaved PARP positive nuclei fraction” value is 54%.

Turning to `O=C(/C=C/c1cccnc1)NCCCCC1CCN(C(=O)c2ccccc2)CC1` + Cc1cc(Nc2cc(N3CCN(C)CC3)nc(/C=C/c3ccccc3)n2)n[nH]1 [ENMD2076] (first compound 0.01 µM, partner dose 0.04 µM), the “cleaved PARP positive nuclei fraction” value was determined as 82.9%.

Consider `O=C(/C=C/c1cccnc1)NCCCCC1CCN(C(=O)c2ccccc2)CC1` + Clc1ccc(Nc2nnc(Cc3ccncc3)c3ccccc23)cc1 [vatalanib] (first compound 0.01 µM, partner dose 2 µM), for which the “cleaved PARP positive nuclei fraction” value worked out at 82.2%.

Turning to `Cc1cc(Nc2cc(N3CCN(C)CC3)nc(Sc3ccc(NC(=O)C4CC4)cc3)n2)n[nH]1` [Tozasertib] + CC1(C)CCC(c2ccc(Cl)cc2)=C(CN2CCN(c3ccc(C(=O)NS(=O)(=O)c4ccc(N[C@H](CCN5CCOCC5)CSc5ccccc5)c(S(=O)(=O)C(F)(F)F)c4)cc3)CC2)C1 [ABT263] (first compound 0.006 µM, partner dose 0.4 µM), the “cleaved PARP positive nuclei fraction” value amounted to 44.6%.

Turning to `CCCCCCCCCCCCCCCCCCOP(=O)([O-])OC1CC[N+](C)(C)CC1` [Perifosine] + NC(=O)c1ccc(N(C(N)=O)c2c(F)cccc2F)nc1-c1ccc(F)cc1F [VX702] (first compound 0.4 µM, partner dose 0.4 µM), the “cleaved PARP positive nuclei fraction” value was found to be 28.7%.

Regarding `CCCCCCCCCCCCCCCCCCOP(=O)([O-])OC1CC[N+](C)(C)CC1` [Perifosine] + CC(=O)c1c(C)c2cnc(Nc3ccc(N4CCNCC4)cn3)nc2n(C2CCCC2)c1=O [palbociclib] (first compound 0.4 µM, partner dose 0.04 µM), the “cleaved PARP positive nuclei fraction” value came out at 23.5%.

In the case of `Cc1ccc(Nc2nccc(N(C)c3ccc4c(C)n(C)nc4c3)n2)cc1S(N)(=O)=O` [Pazopanib] + O=C(O)c1ccc2c(c1)nc(Nc1cccc(Cl)c1)c1ccncc12 [CX4945] (first compound 0.4 µM, partner dose 0.4 µM), the “cleaved PARP positive nuclei fraction” value amounted to 65.2%.

As for `Cc1cn(-c2cc(NC(=O)c3ccc(C)c(Nc4nccc(-c5cccnc5)n4)c3)cc(C(F)(F)F)c2)cn1` [nilotinib] + C=C(c1ccc(C(=O)O)cc1)c1cc2c(cc1C)C(C)(C)CCC2(C)C [Bexarotene] (first compound 0.2 µM, partner dose 2 µM), the “cleaved PARP positive nuclei fraction” value was found to be 74.7%.

Consider `Cc1cc(Nc2cc(N3CCN(C)CC3)nc(Sc3ccc(NC(=O)C4CC4)cc3)n2)n[nH]1` [Tozasertib] + O=C(O)[C@@H]1[O][Sb](=[O])([O][Sb]2(=[O])[O][C@H]([C@H](O)CO)[C@H](O)[C@H](C(=O)O)[O]2)[O][C@H]([C@H](O)CO)[C@@H]1O [stibogluconate] (first compound 0.006 µM, partner dose 2 µM), for which the “cleaved PARP positive nuclei fraction” value was determined as 26.4%.

As for `O=C(/C=C/c1cccnc1)NCCCCC1CCN(C(=O)c2ccccc2)CC1` + Nc1ccn([C@@H]2O[C@H](CO)[C@@H](O)C2(F)F)c(=O)n1 [gemcitabine] (first compound 0.01 µM, partner dose 0.0004 µM), the “cleaved PARP positive nuclei fraction” value amounted to 173%.

On to `O=C(/C=C/c1cccnc1)NCCCCC1CCN(C(=O)c2ccccc2)CC1` + O=C(O)c1ccc2c(c1)nc(Nc1cccc(Cl)c1)c1ccncc12 [CX4945] (first compound 0.01 µM, partner dose 0.4 µM), for which the “cleaved PARP positive nuclei fraction” value is 89.5%.

`O=C(/C=C/c1cccnc1)NCCCCC1CCN(C(=O)c2ccccc2)CC1` + Cc1ccc(Nc2nccc(N(C)c3ccc4c(C)n(C)nc4c3)n2)cc1S(N)(=O)=O [Pazopanib] (first compound 0.01 µM, partner dose 0.4 µM): the “cleaved PARP positive nuclei fraction” value came out at 75.6%.

As for `Cc1cc(Nc2cc(N3CCN(C)CC3)nc(Sc3ccc(NC(=O)C4CC4)cc3)n2)n[nH]1` [Tozasertib] + CC(C)C[C@H](NC(=O)[C@H](Cc1ccccc1)NC(=O)c1cnccn1)B(O)O [Bortezomib] (first compound 0.006 µM, partner dose 0.001 µM), the “cleaved PARP positive nuclei fraction” value was determined as 94.9%.

`Cc1ccc(Nc2nccc(N(C)c3ccc4c(C)n(C)nc4c3)n2)cc1S(N)(=O)=O` [Pazopanib] + Cn1c(=O)n(-c2ccc(C(C)(C)C#N)cc2)c2c3cc(-c4cnc5ccccc5c4)ccc3ncc21 [NVP-BEZ235] (first compound 0.4 µM, partner dose 0.004 µM): the “cleaved PARP positive nuclei fraction” value was 52.6%.

For `Cc1cc(Nc2cc(N3CCN(C)CC3)nc(Sc3ccc(NC(=O)C4CC4)cc3)n2)n[nH]1` [Tozasertib] + CS(=O)(=O)CCNCc1ccc(-c2ccc3ncnc(Nc4ccc(OCc5cccc(F)c5)c(Cl)c4)c3c2)o1 [lapatinib] (first compound 0.006 µM, partner dose 0.8 µM), the “cleaved PARP positive nuclei fraction” value turned out to be 43.2%.

On to `Cc1ccc(Nc2nccc(N(C)c3ccc4c(C)n(C)nc4c3)n2)cc1S(N)(=O)=O` [Pazopanib] + Nc1nc(F)nc2c1ncn2[C@@H]1O[C@H](CO)[C@@H](O)[C@@H]1O [fludarabine] (first compound 0.4 µM, partner dose 0.2 µM), for which the “cleaved PARP positive nuclei fraction” value was 43.3%.

For the molecule `N#CC[C@H](C1CCCC1)n1cc(-c2ncnc3[nH]ccc23)cn1` [ruxolitinib] + CC(=O)c1c(C)c2cnc(Nc3ccc(N4CCNCC4)cn3)nc2n(C2CCCC2)c1=O [palbociclib] (first compound 1 µM, partner dose 0.04 µM), the “cleaved PARP positive nuclei fraction” value turned out to be 304%.

In the case of `O=C(Nc1cc(C(F)(F)F)cc(C(F)(F)F)c1)c1cc(Cl)ccc1O` + Nc1nc(F)nc2c1ncn2[C@@H]1O[C@H](CO)[C@@H](O)[C@@H]1O [fludarabine] (first compound 0.016 µM, partner dose 0.2 µM), the “cleaved PARP positive nuclei fraction” value is 470%.

For `O=C(Nc1cc(C(F)(F)F)cc(C(F)(F)F)c1)c1cc(Cl)ccc1O` + O=C(/C=C/c1cccnc1)NCCCCC1CCN(C(=O)c2ccccc2)CC1 [FK866] (first compound 0.016 µM, partner dose 0.01 µM), the “cleaved PARP positive nuclei fraction” value stood at 120%.
